Source: PubChem BioAssay AID1224828 (NIAID, 2016)

Test: 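Regulators linking TLR4 signalling to p65 nuclear translocation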 (primary screen)
System: mouse RAW264.7 G9 macrophage reporter cells (GFP-p65, Tnf promoter-mCherry)
Reagent: siRNA pool against mouse genes, 100 nM
Timing: 2 days siRNA transfection, then 40 min LPS before fixation
Challenge: LPS (Salmonella minnesota R595) at 10 ng/ml
Measurement: 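Microscopy ratio of nuclear to perinuclear-ring GFP-p65 signal, scaled to the plate median; gene score is the average of two replicate robust z-scores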
Reading the numbers: p65 translocation robust z-score: higher = more nuclear NF-kappaB p65 after LPS than the plate median; nuclear/cytoplasmic p65 ratio: higher = more nuclear NF-kappaB p65
Call rule: 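Active if robust z is above 3.3 (negative regulators) or below -1.56, the Tlr4 control median (positive regulators); activity score 50 or more; control wells not called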
Meaning of the calls: active = hit (p65 shift raised or lowered); inactive = no clear change
The whole screen tested about 17,000 reagents; this is a random part of them. 762 of them (4.5%) were called active. 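Active calls include both raised and lowered p65 entry, mostly lowered; wells with fewer than 50 cells lack a z-score.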 Raw values are not corrected between plates. Unmarked entries are inactive. Reagents against one gene are numbered here. Reagent sequences are not shown.

| gene | pool no. | p65 translocation robust z-score | nuclear/cytoplasmic p65 ratio, rep 1 | nuclear/cytoplasmic p65 ratio, rep 2 | low cell count flag |
| --- | --- | --- | --- | --- | --- |
| Akap12 | 1 | 0.37 | 1.56 | 1.79 | enough cells to score |
| Nkx3-2 | 1 | -0.59 | 1.52 | 1.53 | enough cells to score |
| Mthfd1 | 1 | 0.87 | 1.63 | 1.39 | enough cells to score |
| Dnajc15 | 1 | 2.26 | 1.77 | 1.89 | enough cells to score |
| Or12d13 | 1 | 0.04 | 1.41 | 1.7 | enough cells to score |
| Tmx1 | 1 | 0.16 | 1.41 | 1.2 | enough cells to score |
| Pla2g2f | 1 | – | 1.34 | 1.39 | fewer than 50 cells per well; well left out of scoring |
| Rnd1 | 1 | 0.59 | 1.54 | 1.65 | enough cells to score |
| Or5ac25 | 1 | -1.69 (active) | 1.39 | 1.21 | enough cells to score |
| Or5ac25 | 2 | 0.33 | 1.62 | 1.47 | enough cells to score |
| Miga1 | 1 | 0.47 | 1.52 | 1.56 | enough cells to score |
| Ctsk | 1 | -1.36 | 1.41 | 1.19 | enough cells to score |
| A630052C17Rik | 1 | -0.57 | 1.26 | 1.49 | enough cells to score |
| Dner | 1 | 0.3 | 1.41 | 1.49 | enough cells to score |
| Ablim2 | 1 | -0.23 | 1.61 | 1.61 | enough cells to score |
| Igfbp1 | 1 | -0.44 | 1.32 | 1.37 | enough cells to score |
| Aqp7 | 1 | -1.35 | 1.42 | 1.42 | enough cells to score |
| Radx | 1 | -1.09 | 1.43 | 1.37 | enough cells to score |
| Fa2h | 1 | 0.99 | 1.7 | 1.63 | enough cells to score |
| Mkrn1 | 1 | 1.05 | 1.86 | 1.83 | enough cells to score |
| Rnf227 | 1 | -0.02 | 1.42 | 1.47 | enough cells to score |
| E2f2 | 1 | 1.01 | 1.6 | 1.65 | enough cells to score |
| E2f2 | 2 | 1.17 | 1.62 | 1.54 | enough cells to score |
| Cfap300 | 1 | 1.82 | 1.97 | 1.84 | enough cells to score |
| Agps | 1 | -0.66 | 1.5 | 1.54 | enough cells to score |
| Eef1d | 1 | -0.15 | 1.44 | 1.28 | enough cells to score |
| Tcf4 | 1 | -0.76 | 1.48 | 1.34 | enough cells to score |
| Prune1 | 1 | 1.74 | 1.66 | 1.79 | enough cells to score |

Reagents listed above marked active (1):
| gene | pool no. | p65 translocation robust z-score | nuclear/cytoplasmic p65 ratio, rep 1 | nuclear/cytoplasmic p65 ratio, rep 2 | low cell count flag |
| --- | --- | --- | --- | --- | --- |
| Or5ac25 | 1 | -1.69 (active) | 1.39 | 1.21 | enough cells to score |

Continued.
| gene | pool no. | p65 translocation robust z-score | nuclear/cytoplasmic p65 ratio, rep 1 | nuclear/cytoplasmic p65 ratio, rep 2 | low cell count flag |
| --- | --- | --- | --- | --- | --- |
| Ska2 | 1 | 0.38 | 1.68 | 1.41 | enough cells to score |
| Cdk5rap3 | 1 | 0.52 | 1.79 | 1.44 | enough cells to score |
| Or8b35 | 1 | 0.29 | 1.51 | 1.3 | enough cells to score |
| Or2b4 | 1 | 0.78 | 1.84 | 1.43 | enough cells to score |
| Slc35a1 | 1 | -0.48 | 1.2 | 1.2 | enough cells to score |
| Calcrl | 1 | – | 1.66 | 1.66 | fewer than 50 cells per well; well left out of scoring |
| Papola | 1 | -0.7 | 1.31 | 1.2 | enough cells to score |
| Timm17b | 1 | – | 1.23 | 0.988 | fewer than 50 cells per well; well left out of scoring |
| Rnf151 | 1 | 0.93 | 1.52 | 1.46 | enough cells to score |
| Ak9 | 1 | 0.29 | 1.36 | 1.41 | enough cells to score |
| Tdrd6 | 1 | 0.44 | 1.59 | 1.24 | enough cells to score |
| Rnpepl1 | 1 | -0.96 | 1.2 | 1.19 | enough cells to score |
| Unc93b1 | 1 | – | 1.38 | 1.25 | fewer than 50 cells per well; well left out of scoring |
| Emc6 | 1 | -0.94 | 1.32 | 1.4 | enough cells to score |
| Cuta | 1 | -0.15 | 1.48 | 1.46 | enough cells to score |
| Tbpl1 | 1 | -0.4 | 1.5 | 1.43 | enough cells to score |
| Chrne | 1 | -1.43 | 1.32 | 1.2 | enough cells to score |
| Taf7 | 1 | -0.64 | 1.45 | 1.41 | enough cells to score |
| Olig2 | 1 | 0.21 | 1.53 | 1.39 | enough cells to score |
| Mycn | 1 | 0.28 | 1.54 | 1.4 | enough cells to score |
| Wipi1 | 1 | 1.16 | 1.83 | 1.89 | enough cells to score |
| Ndufaf4 | 1 | -1.84 (active) | 1.24 | 1.12 | enough cells to score |
| H6pd | 1 | 0.62 | 1.71 | 1.66 | enough cells to score |
| Pou5f1 | 1 | -0.85 | 1.46 | 1.3 | enough cells to score |
| Sat1 | 1 | 0.62 | 1.63 | 1.58 | enough cells to score |
| Grm3 | 1 | -0.53 | 1.41 | 1.53 | enough cells to score |
| Aire | 1 | 1.25 | 1.73 | 1.88 | enough cells to score |
| Rab8b | 1 | 0.57 | 1.44 | 1.29 | enough cells to score |
| Cst7 | 1 | -1.88 (active) | 1.31 | 1.06 | enough cells to score |
| Bpifb9a | 1 | -1.85 (active) | 1.12 | 1.22 | enough cells to score |
| Mrpl21 | 1 | -0.94 | 1.4 | 1.73 | enough cells to score |
